This assay concerns the target YtfK, purified, biotinylated (E. coli) (UniProt P0ADE2). Put plainly: BLI; biotinylated YtfK (2.5 µM) on streptavidin biosensors; SpoT1-378 (5-80 µM) or RelA1-396 (40-120 µM) as analyte; BLItz, 25 °C; 50 mM Tris-HCl pH 8.0, 500 mM NaCl, 500 mM KCl, 2 mM β-mercaptoethanol, glycerol 2%, BSA 1 mg/ml; KD estimated from responses 10 s before the end of association, one-site fit; both purified.

These are yes or no findings as the source states them, for the method shown.

The values below come from publication PMC6917717.

B1: RelA catalytic domains (RelA^1-396) (domain or fragment, UniProt P0AG20 1-396)
chain: MVAVRSAHINKAGEFDPEKWIASLGITSQKSCECLAETWAYCLQQTQGHPDASLLLWRGVEMVEILSTLSMDIDTLRAALLFPLADANVVSEDVLRESVGKSVVNLIHGVRDMAAIRQLKATHTDSVSSEQVDNVRRMLLAMVDDFRCVVIKLAERIAHLREVKDAPEDERVLAAKECTNIYAPLANRLGIGQLKWELEDYCFRYLHPTEYKRIAKLLHERRLDREHYIEEFVGHLRAEMKAEGVKAEVYGRPKHIYSIWRKMQKKNLAFDELFDVRAVRIVAERLQDCYAALGIVHTHYRHLPDEFDDYVANPKPNGYQSIHTVVLGPGGKTVEIQIRTKQMHEDAELGVAAHWKYKEGAAAGGARSGHEDRIAWLRKLIAWQEEMADSGEMLDE
As to B1, the binding entry is “no binding (tested: 40 to 120 µM)”.
